Source: the supplement of paper PMC3682954
Several values for one entry are separate records, joined by “and”; a condition that tells them apart may be missing. Identical values can stand only once. Counter-ions that a name gives are not always drawn. ± gives the standard deviation of the averaged measurements. This is one part of the list. Repeats are few or missing, and single values can be far off.

System: RAW 264.7
Test: HMGB1-induced TNF-alpha production relative to HMGB1-stimulated control; higher = more TNF-alpha secretion (less inhibition)
Settings: stimulus: HMGB1 5 ug/ml, 18 h
[1] = compound concentration: 1 ug/ml

| Compound | HMGB1-induced TNF-alpha production (compound concentration: 3 uM) | HMGB1-induced TNF-alpha production [1] |
| --- | --- | --- |
| O=C(Nc1cccc(C(=O)Nc2ccc(S(=O)(=O)O)c3cc(S(=O)(=O)O)cc(S(=O)(=O)O)c23)c1)Nc1cccc(C(=O)Nc2ccc(S(=O)(=O)O)c3cc(S(=O)(=O)O)cc(S(=O)(=O)O)c23)c1 | 114% | – |
| COc1cccc2c1C(=O)c1c(O)c3c(c(O)c1C2=O)C[C@@](O)(C(C)=O)C[C@@H]3O[C@H]1C[C@H](N)[C@H](O)[C@H](C)O1 | 6.45 ± 12% | – |
| COc1cccc2c1C(=O)c1c(O)c3c(c(O)c1C2=O)C[C@@](O)(C(C)=O)C[C@@H]3O[C@H]1C[C@H](N)[C@H](O)[C@H](C)O1 [Daunorubicin] | 8.69% | – |
| COc1cccc2c1C(=O)c1c(O)c3c(c(O)c1C2=O)C[C@@](O)(C(C)=O)C[C@@H]3O[C@H]1C[C@H](N)[C@H](O)[C@H](C)O1 [Daunorubicin hydrochloride] | 0.959% | – |
| CC1=C(/C=C/C(C)=C/C=C/C(C)=C/CO)C(C)(C)CCC1 | 97.9% | – |
| CC1=C(/C=C/C(C)=C/C=C/C(C)=C/CO)C(C)(C)CCC1 [Retinol; Vitamin A, synthetic, 95.%] | – | 62.8% |
| COc1ccccc1N1CCN(CCN(C(=O)c2ccc(I)cc2)c2ccccn2)CC1 [p-MPPI hydrochloride] | 102% | – |
| O=C(O)c1ccccc1OP(=O)(O)O | 82% | – |
| O=C(O)c1ccccc1OP(=O)(O)O [Fosfosal] | 119% | – |
| OC1(c2ccc(Cl)cc2)CCN(Cc2c[nH]c3ccccc23)CC1 | 99.1% | – |
| C/C=C(/C(=C/C)c1ccc(O)cc1)c1ccc(O)cc1 | 66% | – |
| C/C=C(/C(=C/C)c1ccc(O)cc1)c1ccc(O)cc1 [Dienestrol] | 85% | – |
| Cc1ncc([N+](=O)[O-])n1CC(C)O (stereo not drawn) [Secnidazole] | 101 ± 25% | – |
| Cc1ncc([N+](=O)[O-])n1CC(C)O (stereo not drawn) | 83.4% | – |
| Cc1ncc([N+](=O)[O-])n1CC(C)O (stereo not drawn) [1-(2-Methyl-5-nitro-imidazol-1-yl)-propan-2-ol] | 108% | – |
| COc1ccc2cc([C@H](C)C(=O)O)ccc2c1 [(-)-Naproxen sodium] | 99.1% | – |
| COc1ccc2cc([C@H](C)C(=O)O)ccc2c1 [Naproxen] | 81.8 ± 35% | – |
| COc1ccc2cc([C@H](C)C(=O)O)ccc2c1 | 98.9% | – |
| C=C(C)[C@H]1CC=C(C)C(=O)C1 [D(+)-Carvone] | – | 81% |
| Nc1cc(N2CCCCC2)nc(N)[n+]1[O-] | 94.1% | – |
| Nc1cc(N2CCCCC2)nc(N)[n+]1[O-] [Minoxidil] | 79.7 ± 12% | – |

| Compound | HMGB1-induced TNF-alpha production (compound concentration: 3 uM) | HMGB1-induced TNF-alpha production [1] |
| --- | --- | --- |
| Nc1ncnc2c1ncn2[C@@H]1O[C@H](COP(=O)(O)OP(=O)(O)OP(=O)(O)OP(=O)(O)OC[C@@H]2O[C@H](n3cnc4c(N)ncnc43)C(O)[C@@H]2O)[C@H](O)C1O (stereo partly drawn) [P1,P4-Di(adenosine-5')tetraphosphate triammonium] | 104% | – |
| CN(C)C(=O)n1nnnc1Cc1ccc(-c2ccccc2)cc1 | 149% | – |
| CC1(C)S[C@@H]2[C@H](NC(=O)[C@H](N)c3ccccc3)C(=O)N2[C@H]1C(=O)O [Ampicillin] | 94.7% | – |
| CC1(C)S[C@@H]2[C@H](NC(=O)[C@H](N)c3ccccc3)C(=O)N2[C@H]1C(=O)O | 82.1% | – |
| CC1(C)S[C@@H]2[C@H](NC(=O)[C@H](N)c3ccccc3)C(=O)N2[C@H]1C(=O)O [Ampicillin trihydrate] | 76.6% | – |
| C=C[C@H]1CN2CC[C@H]1C[C@H]2[C@H](O)c1ccnc2ccc(OC)cc12 [Quinine] | – | 52.8% |
| C=C[C@H]1CN2CC[C@H]1C[C@H]2[C@H](O)c1ccnc2ccc(OC)cc12 [Quinine sulfate] | 78.3% | – |
| C=C[C@H]1CN2CC[C@H]1C[C@H]2[C@H](O)c1ccnc2ccc(OC)cc12 | 84.3% and 90% | – |
| O=c1n(CCCN2CCN(c3cccc(Cl)c3)CC2)nc2ccccn12 [Trazodone hydrochloride] | 89.5 ± 19% | – |
| O=c1n(CCCN2CCN(c3cccc(Cl)c3)CC2)nc2ccccn12 | 106 ± 0.94% | – |
| CC(=O)NCCCCCC(=O)O | 70.1% | – |
| O=C(O)c1cc(=O)[nH]c(=O)[nH]1 | 88.9% | – |
| Oc1ccc(-c2nc(-c3ccc(F)cc3)c(-c3ccncc3)[nH]2)cc1 | 45.5% | – |
| CCC(NC(C)C)C(O)c1ccc(O)c2[nH]c(=O)ccc12 (stereo not drawn) [Procaterol] | 67% | – |
| Nc1nc(N)c(N=O)c(OCC2CCCCC2)n1 | 99.4% | – |
| CO[C@@H]1[C@H](OC(=O)/C=C/C=C/C=C/C=C/C(=O)O)CC[C@]2(CO2)[C@H]1[C@@]1(C)O[C@@H]1CC=C(C)C [Fumagillin] | 91.1% | – |
| NC(=O)c1cnccn1 [Pyrazinamide] | 64.2% | – |
| NC(=O)c1cnccn1 | 84.8% | – |
| NC(=O)c1cnccn1 [Pyrazinecarboxamide] | 94.3% | – |
| CCCn1c(=O)c2[nH]c(C3CCCC3)nc2n(CCC)c1=O [8-Cyclopentyl-1,3-dipropylxanthine] | 82.4% | – |
| O=C(CCNNC(=O)c1ccncc1)NCc1ccccc1 [Nialamide] | 108 ± 8.9% | – |

| Compound | HMGB1-induced TNF-alpha production (compound concentration: 3 uM) | HMGB1-induced TNF-alpha production [1] |
| --- | --- | --- |
| O=C(CCNNC(=O)c1ccncc1)NCc1ccccc1 | 97.6 ± 14% | – |
| N/C(=N\C(=O)c1nc(Cl)c(N)nc1N)NCc1ccccc1 [Benzamil hydrochloride] | 84 ± 17% | – |
| N/C(=N\C(=O)c1nc(Cl)c(N)nc1N)NCc1ccccc1 [Benzamil] | 84.1% | – |
| CCC(=O)c1ccc2c(c1)N(CCCN(C)C)c1ccccc1S2 [Propionylpromazine hydrochloride] | 94.2% | – |
| Cc1nc2ccccn2c(=O)c1CCN1CCC(C(=O)c2ccc(F)cc2)CC1 [Pirenperone] | 89.8 ± 23% | – |
| Cc1nc2ccccn2c(=O)c1CCN1CCC(C(=O)c2ccc(F)cc2)CC1 | 91.4 ± 23% | – |
| CSc1nc2cc(Cl)c(Oc3cccc(Cl)c3Cl)cc2[nH]1 | 79.5 ± 29% | – |
| CCCCC[C@H](O)/C=C/[C@H]1[C@H](O)CC(=O)[C@@H]1C/C=C\CCCC(=O)O [Dinoprostone] | 67% | – |
| COc1cccc2c1C(=O)c1c(O)c3c(c(O)c1C2=O)C[C@@](O)(C(=O)CO)C[C@@H]3O[C@H]1C[C@H](N)[C@@H](O)[C@H](C)O1 | 16.9 ± 7.3% | – |
| O[C@H]1[C@H](O)[C@@H](O)[C@H](O)[C@@H](O)[C@H]1O | 84.4% | – |
| N=C(N)c1ccc(N)cc1 [4-Aminobenzamidine dihydrochloride] | 90.2% | – |
| CCCN(CCC)CCc1cccc2c1CC(=O)N2 [Ropinirole hydrochloride] | 89.3% | – |
| CCCN(CCC)CCc1cccc2c1CC(=O)N2 [Ropinirole HCl] | 111% | – |
| CCCN(CCC)CCc1cccc2c1CC(=O)N2 | 93.4% | – |
| C/C=C/c1ccc(OC)cc1 [Anethole, trans-] | 100% | – |
| C/C=C/c1ccc(OC)cc1 | 82.4% | – |
| COC(=O)C[C@](O)(CCCC(C)(C)O)C(=O)O[C@@H]1C(OC)=C[C@]23CCCN2CCc2cc4c(cc2[C@H]13)OCO4 | -1.82% | – |
| Cc1[nH]c(=O)c(C#N)cc1-c1ccc2nccn2c1 [Olprinone hydrochloride] | 92.2% | – |
| CC(=O)O[C@H]1C(=O)[C@@]2(C)[C@H]([C@H](OC(=O)c3ccccc3)[C@]3(O)C[C@H](OC(=O)[C@H](O)[C@@H](NC(=O)c4ccccc4)c4ccccc4)C(C)=C1C3(C)C)[C@]1(OC(C)=O)CO[C@@H]1C[C@@H]2O [Paclitaxel] | 129% | – |
| CC(=O)O[C@H]1C(=O)[C@@]2(C)[C@H]([C@H](OC(=O)c3ccccc3)[C@]3(O)C[C@H](OC(=O)[C@H](O)[C@@H](NC(=O)c4ccccc4)c4ccccc4)C(C)=C1C3(C)C)[C@]1(OC(C)=O)CO[C@@H]1C[C@@H]2O | 109 ± 6% | – |
| CC(=O)O[C@H]1C(=O)[C@@]2(C)[C@H]([C@H](OC(=O)c3ccccc3)[C@]3(O)C[C@H](OC(=O)[C@H](O)[C@@H](NC(=O)c4ccccc4)c4ccccc4)C(C)=C1C3(C)C)[C@]1(OC(C)=O)CO[C@@H]1C[C@@H]2O [Taxol] | 112 ± 16% | – |

| Compound | HMGB1-induced TNF-alpha production (compound concentration: 3 uM) | HMGB1-induced TNF-alpha production [1] |
| --- | --- | --- |
| O=Nc1ccc2oc(=O)ccc2c1 [6-Nitroso-1,2-benzopyrone] | 88.2% | – |
| CC(C)(C)c1ccc(S(=O)(=O)/C=C/C#N)cc1 | 34.7% | – |
| CC(N)CCCC(C)(C)O (stereo not drawn) | 80.6% | – |
| CC(N)CCCC(C)(C)O (stereo not drawn) [Heptaminol hydrochloride] | 74.2% | – |
| CN1CCCN=C1/C=C/c1cccc(O)c1 [Oxantel pamoate] | 70.2% | – |
| CN1CCCN=C1/C=C/c1cccc(O)c1 | 80.3% | – |
| Oc1cccc(O)c1 | 98.7% | – |
| C[C@@H](O[C@H]1OCCN(Cc2n[nH]c(=O)[nH]2)[C@H]1c1ccc(F)cc1)c1cc(C(F)(F)F)cc(C(F)(F)F)c1 [Aprepitant] | 95.6% | – |
| CC1CN([C@H]2C[C@H](O)[C@@H](CO)O2)C(=O)NC1=O (stereo partly drawn) [5,6-Dihydrothymidine] | – | 82.7% |
| CC(=O)N(c1onc(C)c1C)S(=O)(=O)c1ccc(N)cc1 | 74.9% | – |
| Cc1cc(O)cc(C)c1Cl | 83.7% | – |
| O=c1cc(-c2ccccc2O)oc2ccc(O)cc12 [2',6-Dihydroxyflavone] | – | 76.2% |
| O=C(O)c1cc(=O)c2c(Cl)cc(Cl)cc2[nH]1 [5,7-Dichlorokynurenic acid] | 85.4% | – |
| Nc1nc(OCC2CCCCC2)c2[nH]cnc2n1 | 99.6% | – |
| CC=CC1=C(C(=O)O)N2C(=O)[C@@H](NC(=O)[C@H](N)c3ccc(O)cc3)[C@H]2SC1 | 86.3% | – |
| NC(=O)CC[C@H](N)C(=O)O [L-Glutamine] | 84.6% | – |
| O=C1c2ccccc2C(=O)C1c1ccc(Br)cc1 | 87.9% | – |
| Cc1cc2c(s1)Nc1ccccc1N=C2N1CCN(C)CC1 | 87.9 ± 8.4% | – |
| Cc1cc2c(s1)Nc1ccccc1N=C2N1CCN(C)CC1 [Olanzapine] | 111 ± 20% | – |
| C[C@H]1[C@H](C)CC[C@]2(C(=O)O[C@@H]3O[C@H](CO[C@@H]4O[C@H](CO)[C@@H](O[C@@H]5O[C@H](C)[C@H](O)[C@@H](O)[C@H]5O)[C@H](O)[C@H]4O)[C@@H](O)[C@H](O)[C@H]3O)CC[C@]3(C)C(=CC[C@@H]4[C@@]5(C)C[C@@H](O)[C@H](O)[C@@](C)(CO)[C@@H]5CC[C@]43C)[C@H]12 [Asiaticoside] | – | 71.9% |
